Data reported in PubChem BioAssay AID2685 (National Center for Advancing Translational Sciences (NCATS), 2010).
The campaign covered roughly 320,000 compounds. About 2,100 (0.66%) were called active. Inconclusive results, whose numbers are uncertain, are shown with a selection of clear calls. The call rests on the fitted dose curve; in most records, active means well fitted inhibition curve with a large enough effect in the signal ratio, with a control signal flat (not every such curve was filed as active); inconclusive means small, poorly fitted or top-dose-only effect, or effect the other way, or a change in a side signal; inactive means flat fitted curve, though single readings scatter; the % refers to the signal ratio. Potencies of inconclusive entries are doubtful fits and often do not repeat.
On the % scale 0 is the no-effect control and ±100 the full control effect; potency means the concentration at half of the fitted maximal effect.

Assay: qHTS Assay for Lipid Storage Modulators in Drosophila S3 Cells
Settings: BODIPY lipid droplet fluorescence, 18-24 h, cells fed with added oleic acid; lipid storage change, negative = inhibition: at 46.1 µM (top of the series) unless noted
In short: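 Drosophila S3 cells loaded with oleic acid (400 uM, as added) and compounds at several concentrations; lipid droplets imaged by 488-nm laser-scanning cytometry, 500–530 nm intensity and object ratio to cell channel. Percent activity normalized to 20 uM Triacsin C.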
In the case of `Cc1ccc(O)c(C(=O)c2cnc3onc(-c4ccc(F)cc4)c3c2)c1`, the lipid storage change, negative = inhibition is reported as inconclusive: 54.5%. In the case of `O=C(Nc1ccccc1NC(=O)c1ccco1)c1ccco1`, the lipid storage change, negative = inhibition is reported as “inactive”. In the case of `Cc1ccc(OCCOC(=O)c2cc(S(=O)(=O)N3CCCCC3)ccc2N2CCOCC2)cc1`, the Potency is reported as active: 5.17 µM. In the case of `COc1ccc(C(=O)CSc2nc(SC)ns2)cc1OC`, the Potency is reported as inconclusive: 1.84 µM [activator, partial curve]. In the case of `CC(=O)Nc1ccc(S(=O)(=O)N2CCN(C(=O)c3cccnc3)CC2)cc1`, the lipid storage change, negative = inhibition is reported as inconclusive: 220%. In the case of `Cc1cc(C)nc(N2CCCC(C(=O)NCc3cccc(C(F)(F)F)c3)C2)n1` (stereo not given), the lipid storage change, negative = inhibition is reported as inconclusive: 11.6%. For `COc1ccc(C(=O)NNC(=O)c2ccccc2[N+](=O)[O-])cc1Br`, the lipid storage change, negative = inhibition was inconclusive: 20.6%. In the case of `Cc1ccc(C(c2sc3nc(C)nn3c2O)N2CCN(c3ccc(F)cc3)CC2)cc1` (stereo not given), the lipid storage change, negative = inhibition is reported as inconclusive: 11.7%. In the case of `COc1ccc(N(C)S(=O)(=O)c2cccc(C(=O)NCC3CCCO3)c2)cc1` (stereo not given), the Potency is reported as inconclusive: 6.51 µM [activator, single point]. For `Cn1c(=O)[nH]c(=O)c2c1nc(SCCC(=O)O)n2Cc1cccc(Br)c1`, the lipid storage change, negative = inhibition was inconclusive: -68.2%. In the case of `CC(=O)c1ccc(NC(=O)CSCCO)cc1`, the lipid storage change, negative = inhibition is reported as inconclusive: -26.3%. For `COC(=O)c1ccccc1S(=O)(=O)N1CCC(C(=O)NC2=NCCS2)CC1`, the lipid storage change, negative = inhibition was inconclusive: 24%. For `CSc1nsc(SC)c1NC(=O)N1CCCC1`, the lipid storage change, negative = inhibition was inconclusive: -11.2%. In the case of `COc1cccc(N(CC(=O)N2CCN(C)CC2)S(=O)(=O)c2ccccc2)c1`, the Potency is reported as inconclusive: 7.31 µM [falling, single point]. For `Cc1ccn2c(=O)c(C(=O)NCCC3=CCCCC3)c(O)nc2c1`, the lipid storage change, negative = inhibition was inconclusive: 49.9%. With `COc1ccc(Cl)cc1NC(=O)C1Cc2cc(S(=O)(=O)N3CCCC3)ccc2N1C(C)=O` (stereo not given) the Potency was inconclusive: 29.1 µM [rising, single point]. In the case of `Cc1ccccc1Nc1nc(N)nc(CSCC(=O)Nc2cccc(Br)c2)n1`, the Potency is reported as inconclusive: 0.092 µM [activator, full curve, poor fit]. With `COc1ccc(S(=O)(=O)N2CCOC2CNC(=O)C(=O)NCCc2ccccc2)cc1OC` (stereo not given) the Potency was inconclusive: 5.8 µM [activator, full curve]. With `O=C(CSc1nnc2c(n1)[nH]c1ccccc12)NCc1ccccc1F` the Potency was inconclusive: 0.411 µM [falling, partial curve, poor fit]. For `CC(NC(=O)c1ccco1)C(=O)OC(C)C(=O)NCc1ccccc1` (stereo not given), the lipid storage change, negative = inhibition was inconclusive: 13.9%. For `COCCN(CCOC)C(=O)c1ccc(CSc2nc3ccccc3s2)cc1`, the lipid storage change, negative = inhibition was inconclusive: -51.4%. In the case of `COc1ccccc1OCc1nnc(SCC(=O)N2CCCCC2)n1-c1ccccc1`, the lipid storage change, negative = inhibition is reported as inconclusive: 3.91%. In the case of `O=C(NC1CCCCCC1)C1CCN(S(=O)(=O)c2cccc3cccnc23)CC1`, the lipid storage change, negative = inhibition is reported as inconclusive: 0.63% [at 9.22 µM]. With `CCc1nnc(NC(=O)c2cc(S(=O)(=O)N3CCN(c4ccccc4)CC3)ccc2Cl)s1` the lipid storage change, negative = inhibition was inconclusive: -75.1%. For `COCC1CCCN(C(=O)c2ccc3oc(CCCc4ccccc4)nc3c2)C1` (stereo not given), the Potency was inconclusive: 13 µM [falling, partial curve]. In the case of `CCCc1nc([N+](=O)[O-])c(S(=O)(=O)c2ccccc2)n1CC(C)C`, the Potency is reported as inconclusive: 18.4 µM [falling, single point]. For `N#Cc1c(NC(=O)c2cnccn2)sc2c1CCCC2`, the Potency was inconclusive: 6.51 µM [activator, partial curve, poor fit]. With `CCCCCn1c(=N)c(S(=O)(=O)c2ccc(Cl)cc2)cc2c(=O)n3cccc(C)c3nc21` the lipid storage change, negative = inhibition was inconclusive: -38.2%. For `NC(=O)c1ccc(N2CCN(S(=O)(=O)c3ccccc3)CC2)c([N+](=O)[O-])c1`, the lipid storage change, negative = inhibition was inconclusive: -18%. For `CCn1c(SCC(=O)Nc2nc3ccc(C)cc3s2)nc2c(c1=O)SC(C)C2` (stereo not given), the Potency was inconclusive: 23.1 µM [falling, partial curve]. For `CCc1nc(SCC(=O)Nc2nnc(CC(C)C)s2)n[nH]1`, the lipid storage change, negative = inhibition was inconclusive: 140%. For `CCOC(=O)c1c(-c2ccccc2)csc1NC(=O)/C(C#N)=C/c1ccc(O)c(OC)c1`, the Potency was inconclusive: 29.1 µM [falling, single point]. In the case of `C=CCOc1ccc(Br)cc1CNCCCN1CCOCC1`, the lipid storage change, negative = inhibition is reported as inconclusive: 14.6%. For `O=C(COc1ccc(Cl)cc1)Nc1cccc(S(=O)(=O)NCc2ccco2)c1`, the Potency was inconclusive: 1.03 µM [falling, full curve]. In the case of `O=C(O)COc1ccccc1-c1nc(-c2ccccc2)c(-c2ccccc2)[nH]1`, the Potency is reported as inconclusive: 3.66 µM [activator, full curve]. With `COCCNC(=S)N1CCC(NC(=O)c2ccco2)CC1` the Potency was inconclusive: 0.731 µM [falling, full curve]. For `COc1ccc2c(c1)c(CC(=O)O)c(C)n2C(=O)c1ccc(Cl)cc1`, the lipid storage change, negative = inhibition was “inactive”. In the case of `COc1ccc(C(=O)/C(C#N)=N/Nc2ccccc2[N+](=O)[O-])cc1`, the lipid storage change, negative = inhibition is reported as inconclusive: 14.9%. For `O=C(c1cc(S(=O)(=O)N2CCOCC2)c(Cl)cc1Cl)N1CCCCC1CO` (stereo not given), the lipid storage change, negative = inhibition was inconclusive: 11.7%. With `COc1ccc(C)cc1N(C(=O)c1ccccc1F)c1nc2ccccc2s1` the Potency was inconclusive: 23.1 µM [activator, single point]. With `Nc1nonc1-n1nnc(C(=O)N/N=C/c2ccc(OCc3ccccc3F)cc2)c1CNc1ccccc1` the lipid storage change, negative = inhibition was inconclusive: 18.2%. With `CCN(CC)S(=O)(=O)c1ccc(C(=O)Nc2ccc3c(c2)OCCO3)cc1` the lipid storage change, negative = inhibition was inconclusive: 46.6%. For `O=C(NC1CCCCC1)c1cc(-c2cccc(Cl)c2)on1`, the lipid storage change, negative = inhibition was inconclusive: -29.3%. In the case of `CCCCOc1ccc(N2C(=O)CC(NCCc3ccc(S(N)(=O)=O)cc3)C2=O)cc1` (stereo not given), the Potency is reported as inconclusive: 0.291 µM [falling, partial curve, poor fit]. With `CCOC(=O)Cn1c(=O)c2c(nc(N3CCCCC3)n2C)n(C)c1=O` the lipid storage change, negative = inhibition was inconclusive: 18.3%. For `O=[N+]([O-])c1ccc(/C=N/Nc2ccnc3cc(Cl)ccc23)o1`, the lipid storage change, negative = inhibition was inconclusive: 69.4%. With `COc1ccc(N2CCN(CCCNC(=O)C(=O)c3c[nH]c4ccccc34)CC2)cc1` the lipid storage change, negative = inhibition was inconclusive: 32.7%. In the case of `Cc1ccc(S(=O)(=O)N2CCN(Cc3nc4sc5c(c4c(=O)[nH]3)CCCC5)CC2)cc1`, the lipid storage change, negative = inhibition is reported as inconclusive: -5.09%. In the case of `Cc1ccc(-c2nc3ccc(Cl)cc3n2OC(C)C(=O)O)cc1` (stereo not given), the lipid storage change, negative = inhibition is reported as inconclusive: -5.48%. In the case of `C/C(=N\NC(=O)c1cccc(F)c1)c1ccc(NC(=O)Cc2ccccc2)cc1`, the lipid storage change, negative = inhibition is reported as inconclusive: -84.4%. In the case of `O=C(Cc1nnc(NC(=O)c2cccc([N+](=O)[O-])c2)s1)NCc1ccccc1`, the Potency is reported as inconclusive: 29.1 µM [activator, single point]. With `CC(=O)c1cc(CN2CCC(C(=O)Nc3cccc(-c4cscn4)c3)CC2)cs1` the lipid storage change, negative = inhibition was inconclusive: 11.6%. In the case of `Cc1cc(Br)c(NC(=O)CN(C)CCOc2ccccc2)c(Br)c1`, the Potency is reported as inconclusive: 0.13 µM [falling, single point]. For `CCc1c(C)sc(NC(=O)C2CC2c2ccccc2)c1C(N)=O` (stereo not given), the lipid storage change, negative = inhibition was inconclusive: -6.74%. With `Cc1ccccc1-c1cc(C(=O)O)n(CC2CC(c3cccnc3)=NO2)n1` (stereo not given) the Potency was inconclusive: 11.6 µM [activator, single point]. In the case of `O=S(=O)(Cc1ccccc1)N1CCc2ccccc21`, the lipid storage change, negative = inhibition is reported as inconclusive: 20.4%. With `Nc1cc(C(=O)OCC(=O)N2CCC(Cc3ccccc3)CC2)ccc1Cl` the lipid storage change, negative = inhibition was inconclusive: 0.871%. In the case of `COc1cc2cc(C)c3nnc(SCC(N)=O)n3c2cc1OC`, the Potency is reported as inconclusive: 18.4 µM [activator, single point]. For `O=C(NCC1CCCO1)C(c1ccc(F)cc1)N(CC1CCCO1)C(=O)c1ccc(-c2ccccc2)[nH]1` (stereo not given), the lipid storage change, negative = inhibition was inconclusive: -23.7%. With `CC(=O)NC(C)C(=O)OCC(=O)c1ccc(-c2ccccc2)cc1` (stereo not given) the lipid storage change, negative = inhibition was inconclusive: -36.5%. For `COc1cc(C(=O)O)ccc1OCC(=O)N1CCOCC1`, the lipid storage change, negative = inhibition was “inactive”. In the case of `O=C(NCc1ccc2c(c1)OCO2)c1ccc(=O)[nH]c1`, the lipid storage change, negative = inhibition is reported as inconclusive: -31%. In the case of `C(=N\n1cnnc1SCc1ccccc1)/c1ccco1`, the lipid storage change, negative = inhibition is reported as inconclusive: 39%. For `CCCn1c(SC(C(=O)Nc2cccc(OC)c2)c2ccccc2)nc2ccccc2c1=O` (stereo not given), the lipid storage change, negative = inhibition was inconclusive: 49.8%. In the case of `O=C(Nc1ccnc(-c2ccncc2)n1)c1ccc(Cl)cc1`, the lipid storage change, negative = inhibition is reported as inconclusive: 18.7%. With `CC(CC(=O)NNC(=O)c1cccc(Cl)c1)c1ccccc1` (stereo not given) the lipid storage change, negative = inhibition was inconclusive: -51.9%. With `c1ccc(NC2=Nc3ccccc3CC2)cc1` the lipid storage change, negative = inhibition was inconclusive: -21%. For `CC(OC(=O)c1n[nH]c2ccccc12)C(=O)Nc1ccccc1[N+](=O)[O-]` (stereo not given), the lipid storage change, negative = inhibition was inconclusive: -66.7%. In the case of `CSc1ccccc1OCc1cc(C(=O)N(C)Cc2cc(C)[nH]n2)no1`, the lipid storage change, negative = inhibition is reported as “inactive”. In the case of `CC(C)(C)c1ccc(C(=O)NN2CCOCC2)cc1`, the Potency is reported as inconclusive: 6.51 µM [activator, single point]. With `COc1cc2c(cc1OC)C(c1cccs1)CC(=O)N2` (stereo not given) the Potency was inconclusive: 0.651 µM [falling, single point]. In the case of `COCCN(CC(=O)Nc1cccc(C)c1C)C(=O)c1cc(-c2cccs2)nn1-c1ccccc1`, the Potency is reported as inconclusive: 3.26 µM [falling, single point]. For `O=C(O)C1C2CCC(C2)C1C(=O)N1CCCC1` (stereo not given), the Potency was inconclusive: 14.6 µM [activator, partial curve]. For `Cc1nnc(Sc2c(N)n(C)c(=O)[nH]c2=O)s1`, the Potency was inconclusive: 0.651 µM [falling, single point]. For `Cc1cc(NC(=O)/C=C/c2cccc(F)c2)n(-c2nc3ccccc3[nH]2)n1`, the lipid storage change, negative = inhibition was inconclusive: 1.56%.
